{"sequences": {"note": "Sequences of proteins named here, by UniProt entry; tags and fusion partners are left off. A change or cut given only in a name is not applied to a line headed by its entry. A line that says so, or that is headed by a name, gives the form on record, which may keep a tag or linker.", "UniProt P45974": "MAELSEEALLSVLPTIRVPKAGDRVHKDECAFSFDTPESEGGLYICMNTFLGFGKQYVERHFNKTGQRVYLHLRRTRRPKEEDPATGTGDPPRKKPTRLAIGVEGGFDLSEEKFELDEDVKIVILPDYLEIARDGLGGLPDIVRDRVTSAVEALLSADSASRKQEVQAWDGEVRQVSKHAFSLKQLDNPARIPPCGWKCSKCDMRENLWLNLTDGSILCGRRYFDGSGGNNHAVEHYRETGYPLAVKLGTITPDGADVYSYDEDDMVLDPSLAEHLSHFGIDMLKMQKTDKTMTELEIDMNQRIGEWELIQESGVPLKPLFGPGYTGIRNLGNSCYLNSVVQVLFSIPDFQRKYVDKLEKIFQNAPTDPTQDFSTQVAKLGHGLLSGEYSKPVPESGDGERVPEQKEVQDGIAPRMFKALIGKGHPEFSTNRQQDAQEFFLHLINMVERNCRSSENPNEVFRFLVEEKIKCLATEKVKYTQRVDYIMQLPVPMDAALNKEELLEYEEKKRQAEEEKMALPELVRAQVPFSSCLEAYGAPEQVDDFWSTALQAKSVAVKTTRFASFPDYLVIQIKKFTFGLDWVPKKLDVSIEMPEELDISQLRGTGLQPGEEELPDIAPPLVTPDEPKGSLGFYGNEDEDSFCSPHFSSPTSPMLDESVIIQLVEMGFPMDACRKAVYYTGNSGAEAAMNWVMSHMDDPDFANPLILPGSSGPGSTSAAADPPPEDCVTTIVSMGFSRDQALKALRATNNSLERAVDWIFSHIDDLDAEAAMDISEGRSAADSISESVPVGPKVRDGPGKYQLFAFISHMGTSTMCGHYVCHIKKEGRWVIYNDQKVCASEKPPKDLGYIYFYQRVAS", "hsUSP5^short-GFP (P45974, form named)": "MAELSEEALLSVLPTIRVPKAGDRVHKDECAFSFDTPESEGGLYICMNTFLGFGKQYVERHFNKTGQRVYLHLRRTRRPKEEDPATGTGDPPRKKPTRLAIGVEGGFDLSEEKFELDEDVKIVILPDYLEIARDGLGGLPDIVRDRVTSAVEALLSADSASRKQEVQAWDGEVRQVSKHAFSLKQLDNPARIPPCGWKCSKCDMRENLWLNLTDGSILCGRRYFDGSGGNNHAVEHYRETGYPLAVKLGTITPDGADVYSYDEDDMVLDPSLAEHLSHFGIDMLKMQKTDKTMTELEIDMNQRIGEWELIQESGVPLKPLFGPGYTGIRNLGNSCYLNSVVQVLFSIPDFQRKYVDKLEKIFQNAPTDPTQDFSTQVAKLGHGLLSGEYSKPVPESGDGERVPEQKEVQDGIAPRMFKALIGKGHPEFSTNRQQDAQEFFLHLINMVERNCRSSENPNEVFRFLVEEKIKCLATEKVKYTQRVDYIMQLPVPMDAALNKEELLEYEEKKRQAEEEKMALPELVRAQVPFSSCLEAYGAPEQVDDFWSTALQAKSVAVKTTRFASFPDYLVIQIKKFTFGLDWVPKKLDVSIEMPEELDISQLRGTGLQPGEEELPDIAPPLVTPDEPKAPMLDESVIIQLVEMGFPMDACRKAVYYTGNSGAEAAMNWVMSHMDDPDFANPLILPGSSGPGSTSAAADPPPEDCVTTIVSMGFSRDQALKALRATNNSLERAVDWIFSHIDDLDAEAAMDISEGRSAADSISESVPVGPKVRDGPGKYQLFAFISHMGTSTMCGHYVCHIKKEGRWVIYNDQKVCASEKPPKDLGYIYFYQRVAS", "UniProt Q9UBN7": "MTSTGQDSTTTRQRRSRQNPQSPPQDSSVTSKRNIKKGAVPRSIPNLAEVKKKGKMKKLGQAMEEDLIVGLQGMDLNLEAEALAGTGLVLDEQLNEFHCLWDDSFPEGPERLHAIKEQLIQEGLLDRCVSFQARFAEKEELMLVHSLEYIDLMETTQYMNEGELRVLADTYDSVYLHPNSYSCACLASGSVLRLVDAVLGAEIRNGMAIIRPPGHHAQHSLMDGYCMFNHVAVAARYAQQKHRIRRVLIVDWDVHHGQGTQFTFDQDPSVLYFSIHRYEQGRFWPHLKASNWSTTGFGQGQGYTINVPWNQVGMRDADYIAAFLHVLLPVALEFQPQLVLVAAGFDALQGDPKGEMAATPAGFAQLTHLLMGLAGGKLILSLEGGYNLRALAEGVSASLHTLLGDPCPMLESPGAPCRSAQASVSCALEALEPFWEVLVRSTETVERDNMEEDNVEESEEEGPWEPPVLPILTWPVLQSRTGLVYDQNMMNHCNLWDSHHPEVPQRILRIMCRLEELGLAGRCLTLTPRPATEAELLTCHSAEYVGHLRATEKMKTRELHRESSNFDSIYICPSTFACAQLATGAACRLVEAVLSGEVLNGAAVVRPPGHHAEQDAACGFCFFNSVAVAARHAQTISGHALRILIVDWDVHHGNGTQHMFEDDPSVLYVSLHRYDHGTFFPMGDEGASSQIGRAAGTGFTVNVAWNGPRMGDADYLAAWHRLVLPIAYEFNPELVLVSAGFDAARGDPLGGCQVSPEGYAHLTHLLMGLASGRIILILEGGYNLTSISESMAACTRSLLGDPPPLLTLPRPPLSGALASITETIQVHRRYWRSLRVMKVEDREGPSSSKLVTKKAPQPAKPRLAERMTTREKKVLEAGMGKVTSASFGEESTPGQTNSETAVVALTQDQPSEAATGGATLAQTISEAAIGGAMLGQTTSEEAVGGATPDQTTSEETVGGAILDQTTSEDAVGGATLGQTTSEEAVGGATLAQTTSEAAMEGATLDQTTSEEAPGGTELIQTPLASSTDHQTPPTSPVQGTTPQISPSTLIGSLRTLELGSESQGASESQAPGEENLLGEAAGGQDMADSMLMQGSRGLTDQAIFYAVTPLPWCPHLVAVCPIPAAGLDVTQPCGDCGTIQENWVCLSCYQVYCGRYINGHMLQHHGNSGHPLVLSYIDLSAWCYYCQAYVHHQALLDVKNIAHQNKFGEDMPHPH"}, "source": "paper PMC11753375", "key": {"[1]": {"biological_target": "hsUSP5^short-GFP (human) (UniProt P45974)", "assay": "co-IP; fig. S2H; the set-up of this panel is not told in the text shown; by the methods GFP-tagged hsUSP5 variants were precipitated from HEK293 RIPA lysate with anti-GFP and protein G-Sepharose"}, "[2]": {"biological_target": "hsUSP5^long-GFP (human) (UniProt P45974)", "assay": "co-IP; fig. S2H; the set-up of this panel is not told in the text shown; by the methods GFP-tagged hsUSP5 variants were precipitated from HEK293 RIPA lysate with anti-GFP and protein G-Sepharose"}}, "note": "No constants are given. Whether binding was seen depends on the method and setting. Binding seen in cells or lysates may run through a third protein. Some entries that bind do so weakly or less than the wild type.", "data": [{"substance": "HDAC6 (fig. S2H) (from UniProt Q9UBN7 1-1215) (enzyme)", "values": [{"measurement": "binding", "setting": "[1]", "result": "binds"}, {"measurement": "binding", "setting": "[2]", "result": "binds"}]}]}
